Data as given in PubChem BioAssay AID743121 (NCATS, 2013).

Screen: 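Partners whose loss is lethal together with topoisomerase I blockade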 (primary screen)
System: MDA-MB-231 cells, a human breast cancer line
Reagent: single siRNA against human genes, 20 nM siRNA (0.8 pmol per well)
Timing: 120 h (drug added 48 h after transfection, read 72 h later)
Conditions: camptothecin 20 nM (about EC30) for 72 h; vehicle 0.1% DMSO in parallel plates
Measurement: 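Cell viability by ATP luminescence (CellTiter-Glo) as % of non-targeting siRNA wells, and the log2 ratio of viability without drug over viability with camptothecin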
Scale: log2 vehicle/camptothecin viability: higher = stronger sensitisation to camptothecin
Rule for the call: 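Each gene scored by redundant siRNA activity (RSA) over its individual siRNA ratios; a gene is called active at p < 0.001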
The deposit covers about 26,000 reagents; shown is a part drawn at random. Over the whole deposit, 167 (0.63%) are marked active. 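Calls are per gene from RSA p-values that are not deposited; an individual active-marked siRNA can sensitise only weakly.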 A number with no mark means an inactive call. Not all columns of the deposit are shown.

| target | PubChem SID | log2 vehicle/camptothecin viability |
| --- | --- | --- |
| BCL2L12 | SID164540795 | -0.17 |
| BCL2L12 | SID164540800 | -0.778 |
| BCL2L12 | SID164540801 | 0.121 |
| BCL2L12 | SID164540802 | -0.279 |
| FZD10 | SID164416301 | -0.108 |
| FZD10 | SID164416303 | -0.424 |
| FZD10 | SID164416306 | -0.00209 |
| FZD10 | SID164416307 | -0.372 |
| TBC1D22A | SID164456837 | -0.23 |
| TBC1D22A | SID164456838 | 0.0318 |
| TBC1D22A | SID164456840 | -0.188 |
| TBC1D22A | SID164456841 | -0.315 |
| AP3D1 | SID164400914 | -0.317 |
| AP3D1 | SID164400917 | -0.182 |
| AP3D1 | SID164400918 | 0.421 |
| CEP43 | SID164415656 | -0.126 |
| CEP43 | SID164415659 | -0.323 |
| CEP43 | SID164415661 | 0.352 |
| CEP43 | SID164415662 | 0.255 |
| PIDD1 | SID164484725 | -0.0314 |
| PIDD1 | SID164484727 | 0.0291 |
| PIDD1 | SID164484729 | 0.468 |
| PIDD1 | SID164484730 | -0.0607 |

Targets listed so far whose gene name starts with T or t (4):
| target | PubChem SID | log2 vehicle/camptothecin viability |
| --- | --- | --- |
| TBC1D22A | SID164456837 | -0.23 |
| TBC1D22A | SID164456838 | 0.0318 |
| TBC1D22A | SID164456840 | -0.188 |
| TBC1D22A | SID164456841 | -0.315 |

More records follow:
| target | PubChem SID | log2 vehicle/camptothecin viability |
| --- | --- | --- |
| ADRA1A | SID164352550 | 0.0511 |
| ADRA1A | SID164352554 | 0.122 |
| ADRA1A | SID164352556 | -0.302 |
| ADRA1A | SID164352561 | 0.308 |
| F10 | SID164364112 | -0.275 |
| F10 | SID164364114 | -0.106 |
| F10 | SID164364115 | -0.401 |
| BAGE5 | SID164548309 | -0.0473 |
| BAGE5 | SID164548310 | -0.339 |
| HMCN1 | SID164541993 | -0.162 |
| HMCN1 | SID164541995 | 0.0139 |
| HMCN1 | SID164541997 | -0.362 |
| GGCX | SID164366444 | -0.0684 |
| GGCX | SID164366445 | -0.156 |
| GGCX | SID164366446 | -0.27 |
| GGCX | SID164366447 | -0.51 |
| BICRA | SID164469005 | -0.104 |
| BICRA | SID164469007 | -0.477 |
| BICRA | SID164469008 | -0.006 |
| BICRA | SID164469010 | 0.543 |
| TDP2 | SID164474513 | -0.0422 |
| TDP2 | SID164474516 | -0.802 |
| TDP2 | SID164474517 | -0.0228 |
| TDP2 | SID164474518 | 0.185 |
| CLEC4D | SID164656845 | -0.315 |
| CLEC4D | SID164656846 | 0.0086 |
| CLEC4D | SID164656848 | -0.712 |
| CLEC4D | SID164656849 | -1.23 |
| PPP2CA | SID164382131 | 0.624 |
| PPP2CA | SID164382132 | 0.423 |
| PPP2CA | SID164382136 | -0.101 |
| PPP2CA | SID164382137 | -0.136 |
| STX5 | SID164390290 | 0.419 |
| STX5 | SID164390291 | 0.413 |
| STX5 | SID164390292 | -0.239 |
| STX5 | SID164390293 | -0.211 |
| PLIN3 | SID164409608 | -0.247 |
| PLIN3 | SID164409609 | -0.449 |
| PLIN3 | SID164409610 | -0.225 |
| PLIN3 | SID174315967 | -0.658 |
| KLF16 | SID164541886 | -0.443 |
| KLF16 | SID164541892 | -0.165 |
| KLF16 | SID164541893 | -0.276 |
| KLF16 | SID164541895 | 0.447 |
| ATRX | SID164354849 | -0.0405 |
| ATRX | SID164354851 | 0.157 |
| ATRX | SID164354854 | -0.323 |
| ATRX | SID164354857 | -0.321 |
